Reference: patent US4680382A, “Analogues of actinomycin D” (priority 1986, dated 1987)

Tested on: P388 Leukemia
Test: Minimum effective dose and therapeutic index vs. P388 leukemia
Format: in vivo, mice
Method: These analogues were also tested in tumor-free BDF1 male mice for determination of their MTD values (Table VIII). The animals (18-22 g) were given a broad range of doses of drugs in 5% dimethyl sulfoxide-saline on days 1, 5 and 9. Drugs were administered ip and the maximum tolerated doses of agents which caused death in only 10% of the tested animals in 21 days (i.e., LD10) were recorded as MTD. […] However, the MED values of 7-hydroxy-AMD and its precursor AMD-OZL 10a are high and are seven to tenfold of the MED values of 4a and 8a. On the basis of these MED values, the therapeutic indices of 8a and 4a are 70 and 96. The therapeutic index of 2a is 13, of 10a 10, and of AMD only 4.
^a Drugs administered ip once on days 1, 5 and 9 starting 1 day after
tumor implantation. Determinations were made from analysis of plotted
^b MED (minimum effective dose) is the dose (milligram/kilogram)
providing an increase in life span of 45% over control in P388 tumor

SMILES	therapeutic index MTD/MED
Cc1c2oc3c(C)c(O)cc(C(=O)N[C@@H]4C(=O)N[C@H](C(C)C)C(=O)N5CCC[C@H]5C(=O)N(C)CC(=O)N(C)[C@@H](C(C)C)C(=O)O[C@@H]4C)c3nc-2c(C(=O)N[C@@H]2C(=O)N[C@H](C(C)C)C(=O)N3CCC[C@H]3C(=O)N(C)CC(=O)N(C)[C@@H](C(C)C)C(=O)O[C@@H]2C)c(N)c1=O [2a, 7-hydroxyactinomycin D, reference compound]	13
Cc1c2oc3c(C)c4oc(-c5ccccc5)nc4c(C(=O)NC4C(=O)NC(C(C)C)C(=O)N5CCCC5C(=O)N(C)CC(=O)N(C)C(C(C)C)C(=O)OC4C)c3nc-2c(C(=O)NC2C(=O)NC(C(C)C)C(=O)N3CCCC3C(=O)N(C)CC(=O)N(C)C(C(C)C)C(=O)OC2C)cc1=O (centres unmarked) [10a, 2-Phenyl-AMD--OZL]	10
Cc1c2oc3c(C)c(O)c(N)c(C(=O)NC4C(=O)NC(C(C)C)C(=O)N5CCCC5C(=O)N(C)CC(=O)N(C)C(C(C)C)C(=O)OC4C)c3nc-2c(C(=O)NC2C(=O)NC(C(C)C)C(=O)N3CCCC3C(=O)N(C)CC(=O)N(C)C(C(C)C)C(=O)OC2C)c(N)c1=O (centres unmarked) [4a, 7-Hydroxy-8-amino-actinomycin D]	96
Cc1c2oc3c(C)c4oc(-c5ccccc5)nc4c(C(=O)NC4C(=O)NC(C(C)C)C(=O)N5CCCC5C(=O)N(C)CC(=O)N(C)C(C(C)C)C(=O)OC4C)c3nc-2c(C(=O)NC2C(=O)NC(C(C)C)C(=O)N3CCCC3C(=O)N(C)CC(=O)N(C)C(C(C)C)C(=O)OC2C)c(N)c1=O [8a, 7-Amino-9,11-dimethyl-2-phenyl-8H-8-oxooxazolo [4,5-b]phenoxazine 4,6-bis[carbonyl-L-threonyl-D-valyl-L-prolylsarcosyl-L-N-methylvaline(threonine hydroxyl)] lactone]	70 and 60
Cc1c2oc3c(C)ccc(C(=O)N[C@@H]4C(=O)N[C@H](C(C)C)C(=O)N5CCC[C@H]5C(=O)N(C)CC(=O)N(C)[C@@H](C(C)C)C(=O)O[C@@H]4C)c3nc-2c(C(=O)N[C@@H]2C(=O)N[C@H](C(C)C)C(=O)N3CCC[C@H]3C(=O)N(C)CC(=O)N(C)[C@@H](C(C)C)C(=O)O[C@@H]2C)c(N)c1=O [AMD, Actinomycin D] (I: T[dV]P[Sar][NMeV] / II: T[dV]P[Sar][NMeV]; ester I:1-I:C, II:1-II:C; linker I:N-II:N via Actinocin(9to1))	4

Where “and” joins values, the source holds several entries; their conditions need not be identical. Equal values may be shown once. *1 amine or outer side, *2 acyl side, *3 side chain or, on linkers, in order; H or OH if unused. Where a SMILES comes first, the peptide text is derived from it. Bridges are numbered along the chain shown (N, C = ends). Roman numbers before positions name the chains, in order. [ ]: non-standard residue; d: D form. Actinocin(9to1) = Cc1c2oc3c(C)ccc(C(=O)[*:1])c3nc-2c(C(=O)[*:2])c(N)c1=O; NMeV = CN[C@H](C(=O)O)C(C)C; Sar = CNCC(=O)O
